# Results deposited as PubChem BioAssay AID504804 (Drosophila RNAi Screening Center, 2011)
# Screen: 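Fly genes whose loss lessens doxorubicin-driven cell death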 (primary screen)
# Cells: Drosophila Kc cells
# Knock-down reagent: long dsRNA against Drosophila genes, 0.5 µg dsRNA per well
# Duration: 96 h (48 h knock-down, then 48 h drug)
# Challenge: doxorubicin 5 µg/ml for 48 h, added 48 h after dsRNA
# Detection: 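Luminescent ATP counts per replicate, not normalised, reflecting viable cells after 48 h dsRNA knock-down followed by 48 h of 5 µg/ml doxorubicin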
# Reading the numbers: raw ATP luminescence: higher = more viable cells, protection from doxorubicin
# Active means: 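z-score of 2 or more over plate mean in both duplicates, retained only when retests and separate dsRNAs confirm the protection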
# The deposit covers about 19,000 reagents; below is a random part of those that have a named target and a result. In the full data, 47 (0.25%) got an active call. 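Signals are raw, not normalised; exact z-scores behind calls not deposited; actives needed confirmation, so some wells reaching 2 SD are inactive.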 The numbers tell different reagents against one gene apart. Names joined by + are all predicted targets of the reagent.
Target gene,reagent no.,"raw ATP luminescence, replicate 1","raw ATP luminescence, replicate 2",call
CG34436 (GeneID 5740743),1,49130,44190,inactive
tgy (GeneID 32896),1,3.90e5,3.48e5,inactive
DCX-EMAP (GeneID 39617),1,45897,44340,inactive
DCX-EMAP (GeneID 39617),2,61053,46637,inactive
Fbxo42 (GeneID 37532),1,84420,67090,inactive
Rsf1 (GeneID 34370),1,38377,58527,inactive
Bdp1 (GeneID 34748),1,93777,69800,inactive
CG5023 (GeneID 42400),1,35650,35420,inactive
CG12517 (GeneID 34506),1,39223,66053,inactive
beta-Spec (GeneID 32746),1,2.73e5,3.00e5,inactive
CG42539 (retired record) (GeneID 8674027),1,2.03e5,2.26e5,inactive
grnd (GeneID 35103),1,35400,39503,inactive
LysD + LysB + LysC (retired record),1,2.64e5,2.98e5,inactive
Ets96B (GeneID 42952),1,57090,46850,inactive
CG44085 (GeneID 34732),1,11390,23133,inactive
FoxK (GeneID 39252),1,39730,34150,inactive
D (GeneID 39570),1,56350,46333,inactive
CG5282 (GeneID 40256),1,24647,26007,inactive
CG13492 (GeneID 37487),1,80497,70760,inactive
CG30373 (GeneID 246573),1,77157,86063,inactive
CG2310 (GeneID 43473),1,33380,38320,inactive
PPP4R2r (GeneID 31979),1,3.48e5,3.59e5,inactive
Cpr5C (GeneID 31510),1,42800,48730,inactive
Syx8 (GeneID 39847),1,95597,61340,inactive
CG11964 (GeneID 41068),1,53753,28780,inactive
AP-2sigma (GeneID 42525),1,43200,32340,inactive
CG14095 (GeneID 40112),1,74627,71787,inactive
Atg18b (GeneID 35396),1,66683,72557,inactive
CG10164 (GeneID 42777),1,2.26e5,2.05e5,inactive

Records listed so far whose gene name begins with F or f:
Target gene,reagent no.,"raw ATP luminescence, replicate 1","raw ATP luminescence, replicate 2",call
Fbxo42 (GeneID 37532),1,84420,67090,inactive
FoxK (GeneID 39252),1,39730,34150,inactive

The results go on:
Target gene,reagent no.,"raw ATP luminescence, replicate 1","raw ATP luminescence, replicate 2",call
mRpL54 (GeneID 37389),1,73110,50940,inactive
CG16926 (GeneID 50205),1,54783,66097,inactive
CG15480 (GeneID 34723),1,53893,78410,inactive
CG13392 (GeneID 34157),1,40717,64583,inactive
Lipt2 (GeneID 40565),1,18223,22807,inactive
CycJ (GeneID 38428),1,40053,38087,inactive
Or35a (GeneID 34918),1,57477,77383,inactive
CG31036 (GeneID 43539),1,43060,34940,inactive
CG31036 (GeneID 43539),2,68190,39270,inactive
png (GeneID 31084),1,44940,40460,inactive
pins (GeneID 53569),1,33230,42270,inactive
CG10466 (GeneID 35268),1,28823,25703,inactive
cnc (GeneID 42743),1,66000,64050,inactive
cnc (GeneID 42743),2,33067,27630,inactive
cnc (GeneID 42743),3,61410,75530,inactive
cnc (GeneID 42743),4,73960,70860,inactive
Vps35 (GeneID 37536),1,83253,61523,inactive
CG6610 (GeneID 38693),1,86577,81987,inactive
Dhc36C (GeneID 35061),1,83157,74723,inactive
CG31128 (GeneID 318601),1,2.08e5,2.14e5,inactive
CG5597 (GeneID 37789),1,76450,68647,inactive
CG15019 (GeneID 38542),1,66850,86770,inactive
bor (GeneID 53565),1,60340,79360,inactive
ph-p (GeneID 31181),1,49840,45260,inactive
CG42237 (GeneID 32261),1,3.18e5,3.28e5,inactive
BobA (GeneID 50281),1,79127,81837,inactive
CG11791 (GeneID 43000),1,44983,38263,inactive
CG4613 (GeneID 39586),1,66937,48557,inactive
